The list shows a part of the results.
Compound: CC1Cc2ccccc2N1C(=O)C1CCCN(C1)C(=O)CCl (mixture of isomers) [TRIM25 ligand 11 (diastereomer mixture)]
Assay: probe-labelled cysteine peptide fold change vs DMSO (competition) (log2 fold change); higher = less target engagement (more negative = stronger competition)
Conditions: THP-1, incubation time: 4 h
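Also: competitive chemoproteomic profiling in live THP-1 cells with an iodoacetamide desthiobiotin (IA-DTB) probe, comparing probe-labelled peptide intensities in compound-treated cells against DMSO-treated controls.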

Sequences of proteins named here, by UniProt entry; tags and fusion partners are left off. A change or cut given only in a name is not applied to a line headed by its entry.
UniProt Q15437: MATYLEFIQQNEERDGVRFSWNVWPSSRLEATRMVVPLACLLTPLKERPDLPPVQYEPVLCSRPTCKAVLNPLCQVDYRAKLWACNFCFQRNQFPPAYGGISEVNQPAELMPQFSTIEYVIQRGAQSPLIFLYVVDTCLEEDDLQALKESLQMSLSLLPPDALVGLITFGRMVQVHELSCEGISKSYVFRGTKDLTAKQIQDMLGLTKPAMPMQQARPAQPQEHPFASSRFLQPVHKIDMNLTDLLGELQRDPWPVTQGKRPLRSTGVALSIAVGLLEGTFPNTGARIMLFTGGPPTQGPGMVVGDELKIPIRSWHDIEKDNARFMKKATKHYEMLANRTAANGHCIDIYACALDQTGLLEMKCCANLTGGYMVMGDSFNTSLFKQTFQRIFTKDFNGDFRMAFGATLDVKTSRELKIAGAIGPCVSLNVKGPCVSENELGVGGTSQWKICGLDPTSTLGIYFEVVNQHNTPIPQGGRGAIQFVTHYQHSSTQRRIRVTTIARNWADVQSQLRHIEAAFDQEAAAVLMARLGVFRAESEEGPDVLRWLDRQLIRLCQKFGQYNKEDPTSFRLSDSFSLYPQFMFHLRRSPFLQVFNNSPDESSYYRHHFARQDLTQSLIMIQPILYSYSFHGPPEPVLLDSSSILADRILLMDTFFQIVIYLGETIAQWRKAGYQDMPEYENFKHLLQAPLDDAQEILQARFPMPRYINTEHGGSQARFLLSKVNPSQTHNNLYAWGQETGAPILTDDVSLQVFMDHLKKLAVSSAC
UniProt Q96KG9: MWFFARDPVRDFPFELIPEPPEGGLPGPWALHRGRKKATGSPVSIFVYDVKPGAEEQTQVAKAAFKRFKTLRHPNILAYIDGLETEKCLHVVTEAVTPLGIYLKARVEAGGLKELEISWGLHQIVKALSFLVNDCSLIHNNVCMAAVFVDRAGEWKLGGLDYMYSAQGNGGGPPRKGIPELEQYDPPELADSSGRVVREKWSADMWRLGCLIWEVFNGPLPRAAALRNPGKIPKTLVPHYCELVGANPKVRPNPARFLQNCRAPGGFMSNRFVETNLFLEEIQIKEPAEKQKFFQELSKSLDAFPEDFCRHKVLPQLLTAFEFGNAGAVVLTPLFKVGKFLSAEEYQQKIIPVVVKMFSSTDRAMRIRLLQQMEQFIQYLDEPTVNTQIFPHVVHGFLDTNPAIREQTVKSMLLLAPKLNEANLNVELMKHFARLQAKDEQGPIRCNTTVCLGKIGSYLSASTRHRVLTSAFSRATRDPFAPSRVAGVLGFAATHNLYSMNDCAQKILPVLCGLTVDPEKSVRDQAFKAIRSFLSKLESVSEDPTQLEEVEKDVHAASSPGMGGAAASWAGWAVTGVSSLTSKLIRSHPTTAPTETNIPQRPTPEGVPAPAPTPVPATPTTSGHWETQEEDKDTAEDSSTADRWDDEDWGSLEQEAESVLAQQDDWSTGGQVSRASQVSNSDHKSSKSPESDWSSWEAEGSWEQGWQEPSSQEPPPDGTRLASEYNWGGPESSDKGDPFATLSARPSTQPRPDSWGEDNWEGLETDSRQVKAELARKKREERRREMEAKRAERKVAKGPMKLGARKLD
UniProt O75845: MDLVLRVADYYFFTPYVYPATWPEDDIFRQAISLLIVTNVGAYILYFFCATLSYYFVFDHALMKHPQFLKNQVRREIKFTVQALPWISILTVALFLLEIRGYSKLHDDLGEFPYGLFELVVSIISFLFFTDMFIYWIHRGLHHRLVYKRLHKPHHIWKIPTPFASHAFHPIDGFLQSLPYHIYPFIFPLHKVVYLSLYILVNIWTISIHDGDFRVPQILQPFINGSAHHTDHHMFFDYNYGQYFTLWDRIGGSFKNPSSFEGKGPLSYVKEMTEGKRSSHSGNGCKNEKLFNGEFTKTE
UniProt Q9Y3Z3: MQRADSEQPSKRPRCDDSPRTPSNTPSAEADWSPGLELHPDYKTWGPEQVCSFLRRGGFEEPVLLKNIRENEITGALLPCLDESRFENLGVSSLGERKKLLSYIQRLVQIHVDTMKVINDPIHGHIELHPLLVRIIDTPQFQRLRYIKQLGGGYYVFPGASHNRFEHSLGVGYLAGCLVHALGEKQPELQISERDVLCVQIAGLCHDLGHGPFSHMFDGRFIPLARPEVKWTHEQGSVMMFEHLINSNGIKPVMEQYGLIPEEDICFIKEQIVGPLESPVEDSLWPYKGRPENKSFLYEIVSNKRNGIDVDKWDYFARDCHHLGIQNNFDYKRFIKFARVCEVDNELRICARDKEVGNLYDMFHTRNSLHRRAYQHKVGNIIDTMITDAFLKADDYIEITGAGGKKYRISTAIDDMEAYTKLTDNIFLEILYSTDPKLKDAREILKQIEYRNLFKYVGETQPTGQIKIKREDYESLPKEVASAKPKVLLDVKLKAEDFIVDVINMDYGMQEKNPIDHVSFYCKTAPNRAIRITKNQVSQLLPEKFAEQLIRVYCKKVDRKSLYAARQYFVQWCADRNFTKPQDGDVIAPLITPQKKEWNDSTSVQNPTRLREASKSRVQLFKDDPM
UniProt Q7Z5N4: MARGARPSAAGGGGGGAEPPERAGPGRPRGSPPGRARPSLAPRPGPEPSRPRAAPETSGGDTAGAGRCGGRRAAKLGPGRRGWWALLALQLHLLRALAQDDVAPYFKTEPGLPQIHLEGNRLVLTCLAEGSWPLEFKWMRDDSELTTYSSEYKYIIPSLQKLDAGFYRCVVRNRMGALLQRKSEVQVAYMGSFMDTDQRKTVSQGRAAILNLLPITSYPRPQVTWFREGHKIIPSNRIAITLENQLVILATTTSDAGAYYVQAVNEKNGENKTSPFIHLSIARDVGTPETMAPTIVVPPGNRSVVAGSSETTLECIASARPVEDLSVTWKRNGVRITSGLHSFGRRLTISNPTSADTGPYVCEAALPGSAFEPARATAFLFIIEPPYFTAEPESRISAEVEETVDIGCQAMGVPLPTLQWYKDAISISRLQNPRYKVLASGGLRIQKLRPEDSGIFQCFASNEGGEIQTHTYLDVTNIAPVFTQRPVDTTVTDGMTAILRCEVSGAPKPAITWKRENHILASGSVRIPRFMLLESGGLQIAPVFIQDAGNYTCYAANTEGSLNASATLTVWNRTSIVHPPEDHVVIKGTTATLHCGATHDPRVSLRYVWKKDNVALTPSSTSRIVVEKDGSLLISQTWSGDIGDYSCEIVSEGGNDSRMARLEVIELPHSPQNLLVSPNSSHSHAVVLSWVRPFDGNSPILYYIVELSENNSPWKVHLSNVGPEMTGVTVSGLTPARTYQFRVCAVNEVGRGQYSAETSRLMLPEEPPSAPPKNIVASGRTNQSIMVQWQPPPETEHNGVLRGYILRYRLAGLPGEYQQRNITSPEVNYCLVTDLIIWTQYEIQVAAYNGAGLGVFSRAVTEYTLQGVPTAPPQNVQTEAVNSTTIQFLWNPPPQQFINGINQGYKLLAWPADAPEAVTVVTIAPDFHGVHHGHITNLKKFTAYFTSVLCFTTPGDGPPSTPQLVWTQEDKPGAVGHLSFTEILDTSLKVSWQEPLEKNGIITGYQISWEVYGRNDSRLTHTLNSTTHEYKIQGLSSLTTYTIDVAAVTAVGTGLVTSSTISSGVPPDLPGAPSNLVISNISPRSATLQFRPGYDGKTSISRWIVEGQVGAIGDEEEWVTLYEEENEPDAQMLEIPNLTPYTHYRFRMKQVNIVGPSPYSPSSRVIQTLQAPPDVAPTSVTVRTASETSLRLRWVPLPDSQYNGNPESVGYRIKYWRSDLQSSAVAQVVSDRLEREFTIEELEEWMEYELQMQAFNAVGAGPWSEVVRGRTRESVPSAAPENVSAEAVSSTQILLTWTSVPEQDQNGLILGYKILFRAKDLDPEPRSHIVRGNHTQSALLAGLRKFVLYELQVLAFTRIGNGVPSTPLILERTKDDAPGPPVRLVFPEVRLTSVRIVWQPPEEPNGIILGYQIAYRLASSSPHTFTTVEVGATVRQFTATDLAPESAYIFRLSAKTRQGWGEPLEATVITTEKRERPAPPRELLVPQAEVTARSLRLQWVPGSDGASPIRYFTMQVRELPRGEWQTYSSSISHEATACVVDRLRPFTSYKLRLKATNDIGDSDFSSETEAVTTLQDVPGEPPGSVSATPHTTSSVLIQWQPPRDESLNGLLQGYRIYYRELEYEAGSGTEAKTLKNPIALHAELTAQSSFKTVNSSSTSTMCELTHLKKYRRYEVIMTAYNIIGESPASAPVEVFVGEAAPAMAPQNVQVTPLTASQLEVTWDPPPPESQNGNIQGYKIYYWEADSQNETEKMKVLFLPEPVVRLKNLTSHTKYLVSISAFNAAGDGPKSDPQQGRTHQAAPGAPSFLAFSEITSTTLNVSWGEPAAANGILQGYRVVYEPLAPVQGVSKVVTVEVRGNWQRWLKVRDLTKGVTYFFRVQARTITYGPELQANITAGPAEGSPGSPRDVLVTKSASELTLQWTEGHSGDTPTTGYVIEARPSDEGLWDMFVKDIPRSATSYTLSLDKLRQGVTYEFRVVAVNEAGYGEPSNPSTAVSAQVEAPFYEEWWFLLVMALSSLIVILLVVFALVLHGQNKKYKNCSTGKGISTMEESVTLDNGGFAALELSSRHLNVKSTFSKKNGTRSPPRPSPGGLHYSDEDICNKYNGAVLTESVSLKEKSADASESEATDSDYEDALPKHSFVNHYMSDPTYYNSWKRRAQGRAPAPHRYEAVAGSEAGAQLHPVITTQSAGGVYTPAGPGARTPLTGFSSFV
UniProt Q96EE3: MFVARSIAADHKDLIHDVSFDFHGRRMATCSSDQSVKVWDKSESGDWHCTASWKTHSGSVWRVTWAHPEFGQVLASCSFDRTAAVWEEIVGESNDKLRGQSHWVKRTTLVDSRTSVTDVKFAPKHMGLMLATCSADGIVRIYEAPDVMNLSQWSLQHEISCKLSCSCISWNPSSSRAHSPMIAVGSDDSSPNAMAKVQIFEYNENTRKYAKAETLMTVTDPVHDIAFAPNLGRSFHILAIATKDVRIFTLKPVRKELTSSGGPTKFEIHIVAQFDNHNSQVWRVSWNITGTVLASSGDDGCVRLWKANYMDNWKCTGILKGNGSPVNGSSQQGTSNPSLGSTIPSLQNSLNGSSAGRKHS
UniProt O94855: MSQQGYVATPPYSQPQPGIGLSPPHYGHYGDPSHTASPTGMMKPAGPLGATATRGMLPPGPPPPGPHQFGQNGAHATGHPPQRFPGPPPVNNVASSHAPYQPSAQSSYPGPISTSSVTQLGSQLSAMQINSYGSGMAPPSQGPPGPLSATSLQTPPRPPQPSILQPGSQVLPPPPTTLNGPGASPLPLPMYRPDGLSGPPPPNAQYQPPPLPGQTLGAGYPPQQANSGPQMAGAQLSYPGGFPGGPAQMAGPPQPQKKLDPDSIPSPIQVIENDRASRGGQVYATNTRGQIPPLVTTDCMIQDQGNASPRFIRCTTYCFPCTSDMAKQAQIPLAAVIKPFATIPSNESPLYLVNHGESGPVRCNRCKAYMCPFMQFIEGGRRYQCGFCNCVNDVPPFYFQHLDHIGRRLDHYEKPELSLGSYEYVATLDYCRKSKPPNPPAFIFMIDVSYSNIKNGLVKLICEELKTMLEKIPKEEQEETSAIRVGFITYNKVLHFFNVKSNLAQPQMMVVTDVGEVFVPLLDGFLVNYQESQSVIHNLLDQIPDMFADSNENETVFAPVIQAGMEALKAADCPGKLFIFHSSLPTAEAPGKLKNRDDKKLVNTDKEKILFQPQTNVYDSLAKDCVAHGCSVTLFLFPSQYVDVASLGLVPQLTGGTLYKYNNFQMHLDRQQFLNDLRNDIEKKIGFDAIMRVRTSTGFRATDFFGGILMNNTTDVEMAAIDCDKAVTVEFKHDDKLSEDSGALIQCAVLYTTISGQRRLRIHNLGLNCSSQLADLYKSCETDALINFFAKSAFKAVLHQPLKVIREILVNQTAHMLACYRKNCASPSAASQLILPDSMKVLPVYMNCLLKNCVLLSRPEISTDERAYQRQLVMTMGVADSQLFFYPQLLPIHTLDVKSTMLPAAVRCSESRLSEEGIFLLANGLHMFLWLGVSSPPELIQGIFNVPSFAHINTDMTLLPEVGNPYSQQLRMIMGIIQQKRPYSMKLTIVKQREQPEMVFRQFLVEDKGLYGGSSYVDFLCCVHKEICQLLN
UniProt P61619, whole entry, looked up: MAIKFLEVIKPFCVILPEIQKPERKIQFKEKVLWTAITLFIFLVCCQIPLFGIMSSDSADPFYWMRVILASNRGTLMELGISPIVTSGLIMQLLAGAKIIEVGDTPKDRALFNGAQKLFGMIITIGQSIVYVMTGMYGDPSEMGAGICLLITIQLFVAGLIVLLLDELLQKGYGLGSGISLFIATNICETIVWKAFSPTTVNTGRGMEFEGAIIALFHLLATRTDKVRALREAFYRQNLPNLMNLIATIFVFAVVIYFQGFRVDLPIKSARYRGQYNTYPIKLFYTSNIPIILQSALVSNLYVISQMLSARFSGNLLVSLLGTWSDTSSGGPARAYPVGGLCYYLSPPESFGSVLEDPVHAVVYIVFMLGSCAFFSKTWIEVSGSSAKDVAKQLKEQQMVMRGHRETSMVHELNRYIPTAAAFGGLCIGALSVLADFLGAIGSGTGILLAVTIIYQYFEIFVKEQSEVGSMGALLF

Row | Target | probe-labelled cysteine peptide fold change (10 µM) | probe-labelled cysteine peptide fold change (50 µM)
1 | SEC23B_Q15437_346_TAANGHCIDIYACALDQTGLLEMK (UniProt Q15437) | -0.04 | 0.0198
2 | SEC31A_O94979_704_LVACWTK (UniProt O94979) | 0.00186 | 0.147
3 | SCYL1_Q96KG9_512_ILPVLCGLTVDPEK (UniProt Q96KG9) | 0.0691 | 0.016
4 | SAR1A_Q9NR31_178_ELNARPMEVFMCSVLKR (UniProt Q9NR31) | -0.614 | -0.486
5 | SC5D_O75845_285_SSHSGNGCK (UniProt O75845) | -0.0733 | -0.341
6 | SCRIB_Q14160_334_LTNLNVDRNHLEALPPEIGGCVALSVLSLR (UniProt Q14160) | -0.0494 | -0.0286
7 | SAMHD1_Q9Y3Z3_80_NIRENEITGALLPCLDESR (UniProt Q9Y3Z3) | -0.0562 | -0.107
8 | SDK1_Q7Z5N4_126_LVLTCLAEGSWPLEFK (UniProt Q7Z5N4) | 0.167 | 0.115
9 | SEC13_P55735_77_GHEGPVWQVAWAHPMYGNILASCSYDR (UniProt P55735) | -0.107 | -0.123
10 | SEH1L_Q96EE3_49_SESGDWHCTASWK (UniProt Q96EE3) | 0.19 | -0.0142
11 | SEC24D_O94855_1021_GLYGGSSYVDFLCCVHK (UniProt O94855) | 0.0192 | 0.0317
12 | SEC61A1_P61619_13_FLEVIKPFCVILPEIQKPERK (UniProt P61619) | -0.291 | -0.191
13 | SEC23B_Q15437_425_IAGAIGPCVSLNVK (UniProt Q15437) | 0.00238 | 0.0675
14 | SEH1L_Q96EE3_77_VTWAHPEFGQVLASCSFDR (UniProt Q96EE3) | 0.357 | 0.437

Record cards (already shown):
SEH1L_Q96EE3_77_VTWAHPEFGQVLASCSFDR (UniProt Q96EE3) as listed: probe-labelled cysteine peptide fold change (10 µM): 0.357; probe-labelled cysteine peptide fold change (50 µM): 0.437
SEC61A1_P61619_13_FLEVIKPFCVILPEIQKPERK (UniProt P61619) as listed: probe-labelled cysteine peptide fold change (10 µM): -0.291; probe-labelled cysteine peptide fold change (50 µM): -0.191

Reference: the supplement of paper PMC12067093, “Discovery and optimisation of a covalent ligand for TRIM25 and its application to targeted protein ubiquitination” (Chemical Science, 2025)
